Source: patent publication US20250277066A1, “Substituted Pyridine-2,6-Bis(Phenylenephenolate) Complexes with Enhanced Solubility that are Useful as Catalyst Components for Olefin Polymerization” (ExxonMobil Chemical Patents Inc., priority 2022, published 2025)

Assay: Propylene polymerization (PP) in small-scale autoclave reactors: yield, quench time, catalyst activity
Conditions: for yield: polymer yield, not corrected for catalyst residue; for quench time: 0.015 umol catalyst complex
Description: Solutions of the pre-catalysts were made using toluene (ExxonMobil Chemical—anhydrous, stored under N2) (98%) or isohexane (ExxonMobil Chemical—polymerization grade, and purified as described below). Pre-catalyst solutions were typically 0.25 mmol/L.
Solvents, polymerization grade toluene and/or isohexanes were supplied by ExxonMobil Chemical Co. and are purified by passing through a series of columns: two 500 cc Oxyclear cylinders in series from Labclear (Oakland, Calif), followed by two 500 cc columns in series packed with dried […] (8-12 mesh; Aldrich Chemical Company), and two 500 cc columns in series packed with dried 5 Å mole sieves (8-12 mesh; Aldrich Chemical Company).
Polymerization grade propylene (C3) was used and further purified by passing it through a series of columns: 2250 cc Oxiclear cylinder from Labclear followed by a 2250 cc column packed with 3 Å mole sieves (8-12 mesh; Aldrich Chemical Company), then two 500 cc columns in series packed with 5 Å mole sieves (8-12 mesh; Aldrich Chemical Company), then a 500 cc column packed with Selexsorb CD (BASF), and finally a 500 cc column packed with Selexsorb COS (BASF).
Activation of the pre-catalysts was either by dimethylanilinium tetrakisperfluorophenylborate (Boulder Scientific or Albemarle Corp; Act ID=A) or is (hydrogenated tallow alkyl)methylammonium tetrakis(pentafluorophenyl)borate supplied as a 10 wt % solution in methylcyclohexane (Boulder Scientific; Act ID=B). Activators were typically used as a 0.25 mmol/L solution in toluene or isohexane.
Tri-n-octylaluminum (TnOAl or TNOA, Neat, AkzoNobel) was also used as a scavenger prior to introduction of the activator and pre-catalyst into the reactor. TNOA was typically used as a 5 mmol/L solution in toluene or isohexane.
Polymerizations were conducted in an inert atmosphere (N2) drybox using autoclaves equipped with an external heater for temperature control, glass inserts (internal volume of reactor=23.5 mL for C2 and C2/C8; 22.5 mL for C3 runs), septum inlets, regulated supply of nitrogen, ethylene and propylene, and equipped with disposable PEEK mechanical stirrers (800 RPM). The autoclaves were prepared by purging with dry nitrogen at 110° C. or 115° C. for 5 hours and then at 25° C. for 5 hours.
The reactor was prepared as described above, then heated to 40° C., and then purged with propylene gas at atmospheric pressure. Toluene or isohexanes, liquid propylene (1.0 mL) and scavenger (TNOA, 0.5 μmol) were added via syringe. The reactor was then brought to process temperature (70° C. or 100° C.) while stirring at 800 RPM. The activator solution, followed by the pre-catalyst solution, were injected via syringe to the reactor at process conditions. Reactor temperature was monitored and typically maintained within +/−1° C. Polymerizations were halted by addition of approximately 50 psi compressed dry air gas mixture to the autoclaves for approximately 30 seconds. The polymerizations were quenched based on a predetermined pressure loss (maximum quench value) or for a maximum of 30 minutes. The reactors were cooled and vented. The polymers were isolated after the solvent was removed in-vacuo. The actual quench time (s) is reported as quench time (s). Yields reported include total weight of polymer and residual catalyst. Catalyst activity is reported as grams of polymer per mmol transition metal compound per hour of reaction time (g/mmol·hr).
Polymerization results are collected in Tables 2 below. “Ex #” stands for example number. Example numbers starting with a “C” are comparative examples. “Cat ID” identifies the pre-catalyst used in the experiment. Corresponding numbers identifying the pre-catalyst (also referred to as pre-catalyst, catalyst, complex or compound) are located in the synthetic experimental section. T(° C.) is the polymerization temperature which was typically maintained within +/−1° C. “Yield” is polymer yield, and is not corrected for catalyst residue. […]

[1] = activator A, T 70° C., propylene homopolymerization
[2] = activator A, T 100° C., propylene homopolymerization
[3] = activator A, T 70 ° C., 1.0 mL propylene

Row | Structure (SMILES) | yield (activator A, T 70° C.) | quench time [1] | yield (activator A, T 100° C.) | quench time [2] | yield (activator B, T 70° C.) | yield (activator B, T 100° C.) | quench time (activator B, T 100° C., propylene homopolymerization) | quench time [3] | quench time (activator B, T 70 ° C., 1.0 mL propylene)
1 | Cc1cc2c(c(C34CC5CC(CC(C5)C3)C4)c1)[O][Zr-]1([CH3])([CH3])[O]c3c(cc(C)cc3C34CC5CC(CC(C5)C3)C4)-c3ccccc3-c3cccc([n+]31)-c1ccccc1-2 [Complex 1] | 0.3543 g and 0.4127 g and 0.4037 g | 15 s and 13 s and 14 s | 0.2621 g and 0.3151 g and 0.2204 g | 16 s and 17 s and 20 s |  |  |  |  | 
2 | CC(C)(C)c1cc2c(c(C34CC5CC(CC(C5)C3)C4)c1)[O][Zr-]1([CH3])([CH3])[O]c3c(cc(C(C)(C)C)cc3C34CC5CC(CC(C5)C3)C4)-c3ccccc3-c3cccc([n+]31)-c1ccccc1-2 [Complex 2] | 0.3777 g and 0.431 g and 0.4143 g |  | 0.2842 g and 0.3363 g and 0.2458 g |  | 0.3535 g and 0.3501 g and 0.2818 g | 0.2345 g and 0.2459 g and 0.2874 g | 24 s and 22 s and 31 s |  | 
3 | Cc1cc2[n+]3c(c1)-c1ccccc1-c1cc(C(C)(C)C)cc(C45CC6CC(CC(C6)C4)C5)c1[O][Zr-]3([CH3])([CH3])[O]c1c(cc(C(C)(C)C)cc1C13CC4CC(CC(C4)C1)C3)-c1ccccc1-2 [Complex 3] | 0.3382 g and 0.3518 g |  | 0.1677 g and 0.28 g and 0.1897 g |  | 0.322 g and 0.3359 g and 0.3318 g | 0.1794 g and 0.2302 g and 0.2075 g |  | 50 s and 36 s | 75 s and 77 s
4 | Cc1cc2c(c(C34CC5CC(C)(CC(C)(C5)C3)C4)c1)[O][Hf-]1([CH3])([CH3])[O]c3c(cc(C)cc3C34CC5CC(C)(CC(C)(C5)C3)C4)-c3ccccc3-c3cc(N4CCCC4)cc([n+]31)-c1ccccc1-2 [Complex 30] | 0.0533 g and 0.0513 g and 0.0640 g | 1801 s and 1800 s | 0.0334 g and 0.0503 g and 0.0584 g | 1800 s and 1613 s |  |  |  |  | 
5 | Cc1cc2[n+]3c(c1)-c1ccccc1-c1cc(C(C)(C)C)cc(C45CC6CC(CC(C6)C4)C5)c1[O][Zr-]3([CH3])([CH3])[O]c1c(cc(C(C)(C)C)cc1C13CC4CC(CC(C4)C1)C3)-c1ccccc1-2 [compound 3] | 0.3651 g |  |  |  |  |  |  | 70 s | 

Where “and” joins values, the source holds several entries; their conditions need not be identical. Equal entries are not always repeated.
